This is an account of results in PubChem BioAssay AID330 (DTP/NCI, 2004).

The test has as its system P388 leukemia ip, CD2F1 mice, survival T/C. Put plainly: NCI In Vivo Anticancer Drug Screen. Data for tumor model P388 Leukemia (intraperitoneal) in CD2F1 (CDF1) mice. The following applies: T/C endpoint: median survival time, higher T/C = longer survival.
Where [1] appears, read: dose: 20.0 mg/kg/injection, schedule: Q01DX005 (ip), vehicle: saline with Tween-80.
Where [2] appears, read: dose: 64.0 mg/kg/injection, schedule: Q04DX003 (ip), vehicle: water.

The list shows only some results of the screen, not a fair sample: it gathers tests that were run many times, whatever their T/C, doses with no T/C, and many T/C values between a quarter and a half above the control. Further doses and runs are listed elsewhere. T/C is the treated group as % of the vehicle group. Some entries give survivors of the animals treated and no T/C: the source holds a T/C of zero for them, seemingly a mark for toxic or unscored doses. Some survivor counts are full or nearly so, which does not show that the dose was tolerated: survival well below the control is almost never listed, so the zero probably covers shortened survival too. Counts of survivors are from the toxicity check (mostly the fifth day) where no day follows; animals may have died later. Schedule codes are those of the source, read here as Q, the interval in days (D) or hours (H), X, the number of doses. Some entries hold several experiments; the results are listed from low to high. Where survival is the endpoint, this PubChem deposit counts one and a half times the control or more as active, and values a quarter to a half above the control carry no call in these data; other NCI protocols may use other cut-offs. Marks such as (2×) stand for listed records that agree. Some T/C values are followed by the survivors on the day toxicity was checked, most often the fifth; where none is given, no animal had died by that day.

`O=C(O)CCCc1ccc(N(CCCl)CCCl)cc1`: the T/C is 141 % of control (dose: 1.87 mg/kg/injection, schedule: Q01DX009 (ip), vehicle: Klucel (hydroxypropylcellulose) (HPC)); 127 % of control (dose: 2.0 mg/kg/injection, schedule: Q03HX008 (ip), vehicle: saline); 121 and 131 % of control (dose: 2.5 mg/kg/injection, schedule: Q01DX005 (ip), vehicle: saline with Tween-80, evaluated on day 30); 126 and 127 % of control (dose: 2.5 mg/kg/injection, schedule: Q01DX005 (ip), vehicle: saline with Tween-80, evaluated on day 45); 130 and 142 % of control (dose: 4.0 mg/kg/injection, schedule: Q01DX005 (ip), vehicle: saline with Tween-80); 131 % of control (dose: 4.0 mg/kg/injection, schedule: Q03HX024 (ip), vehicle: saline). In addition, the T/C runs as follows: (dose: 5.0 mg/kg/injection, schedule: Q01DX005 (ip), vehicle: saline with Tween-80, evaluated on day 30) 130 and 151 % of control; (dose: 5.0 mg/kg/injection, schedule: Q01DX005 (ip), vehicle: saline with Tween-80, evaluated on day 45) 148 % of control (2×); (dose: 6.0 mg/kg/injection, schedule: Q01DX009 (ip), vehicle: saline + alcohol) 149 % of control; (dose: 7.2 mg/kg/injection, schedule: Q04DX002 (ip), vehicle: saline with Tween-80) 141 % of control; (dose: 8.0 mg/kg/injection, schedule: Q01DX005 (ip), vehicle: saline with Tween-80) 146 % of control [7 of 8 alive]; (dose: 8.0 mg/kg/injection, schedule: Q03HX008 (ip), vehicle: saline) 140 % of control. The T/C (dose: 8.0 mg/kg/injection, schedule: Q04DX003 (ip), vehicle: Klucel (hydroxypropylcellulose) (HPC)) is 128 % of control; the T/C (dose: 8.0 mg/kg/injection, schedule: Q04DX003 (ip), vehicle: water) is 130 % of control; the T/C (dose: 10.0 mg/kg/injection, schedule: Q01DX005 (ip), vehicle: saline with Tween-80, evaluated on day 30) is 153 and 186 % of control; the T/C (dose: 10.0 mg/kg/injection, schedule: Q01DX005 (ip), vehicle: saline with Tween-80, evaluated on day 45) was 181 and 182 % of control; the T/C (dose: 12.0 mg/kg/injection, schedule: Q04DX002 (ip), vehicle: saline with Tween-80) was 138 % of control; the T/C (dose: 15.0 mg/kg/injection, schedule: Q01DX009 (ip), vehicle: Klucel (hydroxypropylcellulose) (HPC)) is 149 % of control. Moreover, the T/C was 125 % of control (dose: 16.0 mg/kg/injection, schedule: Q01DX009 (ip), vehicle: saline); 136 % of control (dose: 16.0 mg/kg/injection, schedule: Q04DX003 (ip), vehicle: saline); 130 % of control (dose: 16.0 mg/kg/injection, schedule: Q04DX003 (ip), vehicle: water, evaluated on day 30); 142 % of control (dose: 16.0 mg/kg/injection, schedule: Q04DX003 (ip), vehicle: water, evaluated on day 45); 220 % of control under setting [1]; 141 % of control (dose: 30.0 mg/kg/injection, schedule: Q01DX009 (ip), vehicle: Klucel (hydroxypropylcellulose) (HPC)). Further, the T/C is, setting by setting: (dose: 32.0 mg/kg/injection, schedule: Q01DX001 (ip), vehicle: saline) 145 % of control; (dose: 64.0 mg/kg/injection, schedule: Q01DX001 (ip), vehicle: saline) 140 % of control [9 of 10 alive]; under setting [2], 149 % of control; (dose: 128.0 mg/kg/injection, schedule: Q01DX001 (sc), vehicle: saline) 140 % of control [8 of 10 alive]. For the same molecule, the survivor count is listed as 3 of 6 (dose: 16.0 mg/kg/injection, schedule: Q01DX005 (ip), vehicle: saline with Tween-80); 10 of 10 (dose: 16.0 mg/kg/injection, schedule: Q03HX024 (ip), vehicle: saline); 1 of 6, 2 of 8, 3 of 6 under setting [1]; 0 of 8 (dose: 25.0 mg/kg/injection, schedule: Q01DX009 (ip), vehicle: Klucel (hydroxypropylcellulose) (HPC)); 0 of 6 (dose: 32.0 mg/kg/injection, schedule: Q01DX005 (ip), vehicle: saline with Tween-80); 9 of 10 (dose: 32.0 mg/kg/injection, schedule: Q01DX009 (ip), vehicle: saline). Also, the survivor count is, setting by setting: (dose: 32.0 mg/kg/injection, schedule: Q01DX009 (oral), vehicle: saline) 9 of 10; (dose: 32.0 mg/kg/injection, schedule: Q01DX009 (sc), vehicle: saline) 7 of 10; (dose: 60.0 mg/kg/injection, schedule: Q01DX009 (ip), vehicle: Klucel (hydroxypropylcellulose) (HPC)) 3 of 6; (dose: 64.0 mg/kg/injection, schedule: Q01DX009 (ip), vehicle: saline) 0 of 10; (dose: 64.0 mg/kg/injection, schedule: Q01DX009 (oral), vehicle: saline) 4 of 10; (dose: 64.0 mg/kg/injection, schedule: Q01DX009 (sc), vehicle: saline) 4 of 10. Further, the survivor count is 8 of 10 (dose: 64.0 mg/kg/injection, schedule: Q04DX003 (ip), vehicle: saline); 5 of 6 under setting [2]; 9 of 10 (dose: 64.0 mg/kg/injection, schedule: Q04DX003 (oral), vehicle: saline); 10 of 10 (dose: 64.0 mg/kg/injection, schedule: Q08DX002 (ip), vehicle: saline); 0 of 10 (dose: 128.0 mg/kg/injection, schedule: Q01DX001 (ip), vehicle: saline); 0 of 10 (dose: 128.0 mg/kg/injection, schedule: Q01DX001 (oral), vehicle: saline). Moreover, the survivor count is 0 of 10 (dose: 128.0 mg/kg/injection, schedule: Q01DX009 (oral), vehicle: saline); 0 of 10 (dose: 128.0 mg/kg/injection, schedule: Q04DX003 (ip), vehicle: saline); 3 of 10 (dose: 128.0 mg/kg/injection, schedule: Q04DX003 (oral), vehicle: saline); 0 of 10 (dose: 128.0 mg/kg/injection, schedule: Q08DX002 (ip), vehicle: saline); 0 of 10 (dose: 256.0 mg/kg/injection, schedule: Q01DX001 (oral), vehicle: saline); 0 of 10 (dose: 256.0 mg/kg/injection, schedule: Q01DX009 (oral), vehicle: saline). Moreover, the survivor count reads like this: (dose: 256.0 mg/kg/injection, schedule: Q04DX003 (oral), vehicle: saline) 0 of 10; (dose: 512.0 mg/kg/injection, schedule: Q01DX001 (oral), vehicle: saline) 0 of 10; (dose: 512.0 mg/kg/injection, schedule: Q04DX003 (oral), vehicle: saline) 0 of 10; (dose: 1024.0 mg/kg/injection, schedule: Q01DX001 (oral), vehicle: saline) 0 of 10; (dose: 1024.0 mg/kg/injection, schedule: Q04DX003 (oral), vehicle: saline) 0 of 10.

For the molecule `NC(=O)N1C(=O)C=CC1=O`, the survivor count (dose: 200.0 mg/kg/injection, schedule: Q01DX005 (ip), vehicle: Klucel (hydroxypropylcellulose) (HPC)) is on record as 1 of 5.

Regarding `[Cl][Mn][Cl].[NH-]NP(=S)(N[NH-])Oc1ccccc1.[NH-]NP(=S)(N[NH-])Oc1ccccc1`, the survivor count (dose: 100.0 mg/kg/injection, schedule: Q01DX005 (ip), vehicle: saline) is listed as 0 of 5 and the survivor count (dose: 200.0 mg/kg/injection, schedule: Q01DX005 (ip), vehicle: saline) is listed as 0 of 5.

As to `COC(=O)c1ccccc1N=C/C(Cl)=C(/Cl)C(=O)O`, the survivor count (dose: 100.0 mg/kg/injection, schedule: Q01DX009 (ip), vehicle: Klucel (hydroxypropylcellulose) (HPC)) was 5 of 6 and the survivor count (dose: 200.0 mg/kg/injection, schedule: Q01DX009 (ip), vehicle: Klucel (hydroxypropylcellulose) (HPC)) was 0 of 6.
